Screen size: about 220,000 compounds; about 770 (0.35%) were called active. This list was built around the results that the source calls inconclusive (neither active nor inactive); the mix of calls is not that of the screen. No stated cut-off is given here; in the data, active means binding response below about 49% or above about 150%; inconclusive means no clear call, values can overlap the other calls; inactive means in between.
Each compound was assayed against Guanine nucleotide-binding protein G(o) subunit alpha (Homo sapiens) (UniProt P09471) (assay: compounds changing RGS7 association with Galphao – biochemical, multiplexed bead flow cytometry, primary screen (AID 1439;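 further: fluorescent Galphao held in activated GDP-AlF4 state binding bead-coupled RGS7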)). Conditions: at 10 µM, actives lie on both sides.

Protein sequences, listed by entry. Tags and fused reporters are not part of them.
UniProt P09471, whole entry, looked up: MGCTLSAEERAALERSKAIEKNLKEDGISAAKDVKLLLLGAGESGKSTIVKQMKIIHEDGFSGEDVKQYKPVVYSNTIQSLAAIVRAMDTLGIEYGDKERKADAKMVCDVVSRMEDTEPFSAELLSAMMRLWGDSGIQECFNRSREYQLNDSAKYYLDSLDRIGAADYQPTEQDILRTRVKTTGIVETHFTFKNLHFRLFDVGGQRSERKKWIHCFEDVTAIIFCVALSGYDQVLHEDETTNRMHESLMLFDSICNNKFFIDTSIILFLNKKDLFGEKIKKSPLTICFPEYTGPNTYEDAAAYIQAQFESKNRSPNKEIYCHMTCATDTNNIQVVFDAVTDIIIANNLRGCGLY

SMILES | binding response (% of control)
CC(=O)OC1N=C(c2ccccc2Cl)c2cc(Br)ccc2NC1=O (centres undefined) | inconclusive: 108%
N=c1n(CCO)c2ccccc2n1Cc1ccccc1 | inactive: 103%
CCCC[N+]12CCC(CC1)C(Cc1ccccc1)C2 (centres undefined) | inconclusive: 50.5%
CCOP(=O)(OCC)C(O)c1ccc(OC)c(OC)c1 (centres undefined) | inactive: 90.6%
C[C@@H]1C[C@H]2OC(=O)C3(CO3)[C@H]2[C@H](O)[C@]2(C)C(=O)C3OC3[C@@H]12 (some centres undefined) | inconclusive: 110%
Cc1ccc2c(c1)c(=O)c1c3n2CCN(CC2CO2)C3CC1 (centres undefined) | inactive: 98.2%
O=C(Nc1ccc2ccccc2c1)N1C[C@H]2C[C@@H](C1)c1cccc(=O)n1C2 | inconclusive: 120%
O=c1c2ccccc2nc(/C=C\c2ccccc2[N+](=O)[O-])n1-c1ccccc1O | inconclusive: 49.1%
Cc1c(N=Nc2c(O)[nH]c(=O)[nH]c2=O)c(=O)n(-c2ccccc2)n1C | inconclusive: 94.8%
CCCCn1c(O)c(C(C)=NCCc2c[nH]c3ccccc23)c(=O)[nH]c1=O | inconclusive: 78.9%
CCSC1=NN1c1cc(C)nc(N)n1 | inconclusive: 104%
CC1(C)CSC(Nc2ccc(F)c(Cl)c2)=N1 | inactive: 103%
CN1CCc2nc(SCc3cccc(Br)c3)c(C#N)cc2C1 | inconclusive: 80%
O=CC(Cl)P(=O)(N1CCOCC1)N1CCOCC1 (centres undefined) | inconclusive: 99.2%
CCn1cc(/C=c2/sc3n(c2=O)C2c4ccccc4OC(C)(N=3)C2C(=O)OC)c(C)n1 (centres undefined) | inactive: 109%
COc1ccccc1[As](=O)(O)CC(O)COc1ccc(Cl)cc1Cl (centres undefined) | inconclusive: 98.8%
O=C1NC(=O)N(c2ccccc2)C(=O)/C1=C\c1ccc([N+](=O)[O-])s1 | inconclusive: 63.4%
CCOC(=O)/C(=N\Nc1ccccc1)N1CC1 | inconclusive: 105%
O=[N+]([O-])c1cc(F)c(N2CCCCC2)cc1Br | inconclusive: 119%
CNCCc1ccc(OC)c(OC)c1 | inconclusive: 108%
CC(C)(CN)CC(=O)O | inconclusive: 56.9%
CCOP(=O)(OCC)c1cccc(O)c1 | inactive: 101%
O=c1[nH]c(=S)n(Cc2ccc(F)cc2)c(O)c1C=NCC1CCCO1 (centres undefined) | inactive: 99%
Cc1nc2ccccc2c(=O)n1-c1cccnc1 | inactive: 101%

2 entries picked at random from the list so far, as already listed:
SMILES | binding response (% of control)
O=[N+]([O-])c1cc(F)c(N2CCCCC2)cc1Br | inconclusive: 119%
COc1ccccc1[As](=O)(O)CC(O)COc1ccc(Cl)cc1Cl (centres undefined) | inconclusive: 98.8%

(listing goes on)

SMILES | binding response (% of control)
CC1(C)CC(=O)C(C=NCCN2CCN(C(=O)Cc3ccc(F)cc3)CC2)=C(O)C1 | inactive: 101%
C=CCN1C(=O)NC(=O)/C(=C/c2ccc(OC)c(COc3ccc(NC(C)=O)cc3)c2)C1=O | inconclusive: 82.2%
O=C(CSC1c2ccccc2-c2ccccc21)N/N=C/c1ccccc1O | inactive: 96.7%
OCC#CC[N+]1(CC#Cc2ccccc2)CCOCC1 | inactive: 102%
C[n+]1c(-c2ccccc2)cc(-c2ccc(Cl)cc2)cc1-c1ccccc1 | inconclusive: 109%
CN1CCC(c2c[nH]c3ccccc23)C1 (centres undefined) | inconclusive: 97.1%
COc1cc(/C=C2/C(=O)NC(=O)N(c3ccc(C)cc3)C2=O)cc(OC)c1OC | inconclusive: 73.5%
O=P(Nc1ccccc1)(Oc1ccccc1)Oc1ccccc1 | inconclusive: 296%
CCC(N)Cc1c[nH]c2ccccc12 (centres undefined) | inconclusive: 96.4%
COCCCNC(=O)c1c(N)n(Cc2ccco2)c2nc3ccccc3nc12 | inconclusive: 101%
CC(C)CCn1c(=O)c(C(=O)NCc2ccco2)c(O)c2ccccc21 | inconclusive: 91.2%
CCOc1ccc(-c2cc(C)[n+](CCN(CC)CC)c(-c3ccc(OCC)cc3)c2)cc1 | inconclusive: 104%
CC1CN(c2cc([N+](=O)[O-])ccc2Cl)CC(C)N1 (centres undefined) | inactive: 101%
CC(C)N1OC2CC1c1nc3ccccc3n1C2 (centres undefined) | inconclusive: 95%
O=c1[nH]c(=O)n(Cc2ccc(F)cc2)c(O)c1C=NCCCn1ccnc1 | inactive: 97.3%
O=C(c1ccc(N2CC3CC(C2)c2cccc(=O)n2C3)c([N+](=O)[O-])c1)N1CCCCC1 (centres undefined) | inactive: 104%
c1ccc(CNc2c3c(nc4ccccc24)CCC3)cc1 | inconclusive: 97.1%
COc1ccccc1OCC#CCN1CCCC(C)C1 (centres undefined) | inconclusive: 119%
CN(C)c1ccc(/C=C/C=C/c2sc3ccccc3[n+]2C)cc1 | inconclusive: 108%
Cc1ccc(N2C(=O)NC(=O)/C(=C/c3ccoc3)C2=O)cc1 | inconclusive: 55%
CCCCC(=O)N/N=C/c1c(O)n(CCc2ccccc2)c(=O)[nH]c1=O | inconclusive: 97.3%
O=C(NCCO)c1nsnc1NCCCl | inactive: 93.9%
Cn1cc(C(=O)NP(=O)(N2CCOCC2)N2CCOCC2)c2ccccc21 | inconclusive: 100%
COc1ccccc1C1C([N+](=O)[O-])=C(N)Oc2c1c(=O)oc1ccccc21 (centres undefined) | inconclusive: 73.7%

SMILES | binding response (% of control)
CN(C)C(Cc1ccccc1)C(=O)c1cccs1 (centres undefined) | inconclusive: 111%
CC(=O)NC(Cc1ccc(N(CCCl)CCCl)cc1)C(=O)NCC(=O)NCC(=O)O (centres undefined) | inactive: 97.4%
O=C1NC(=S)N(c2ccc(Br)cc2)C(=O)/C1=C/N1CCN(C(=O)c2ccco2)CC1 | inconclusive: 97.9%
Cc1ccc2c(c1Cl)NC(C(=O)O)C1CC(Sc3ccccc3[N+](=O)[O-])C(Cl)C21 (centres undefined) | inconclusive: 113%
CNC(C(=O)c1ccccc1)C(OC(C)=O)c1cccc([N+](=O)[O-])c1 (centres undefined) | inconclusive: 98%
CC(C)CN(C(=O)CN1CC=C(c2ccccc2)CC1)c1c(N)n(CC(C)C)c(=O)[nH]c1=O | inactive: 104%
O=C1NC(=O)N(Cc2ccccc2)C(=O)/C1=C/C=C/c1ccco1 | inconclusive: 107%
CCCCC(=O)N/N=C/c1c(O)n(CCCC)c(=S)[nH]c1=O | inconclusive: 104%
CC1CN2c3ccc([N+](=O)[O-])cc3CC3(C(=O)N(C)C(=O)N(C)C3=O)C2C(C)O1 (centres undefined) | inconclusive: 321%
CC1(C)CN=C(Nc2ccc(F)c(Cl)c2)S1 | inconclusive: 94.1%
C=CCN1C(=O)NC(=O)/C(=C/c2ccc(N(C)C)c(Br)c2)C1=O | inactive: 100%
Oc1cccc2nc3ccccc3nc12 | inconclusive: 103%
S=C=Nc1ccccn1 | inconclusive: 83.5%
CC1=CC(=C2C(=O)NC(=O)NC2=O)C=C(C(F)(F)F)N1Cc1ccccc1 | inconclusive: 112%
O=C1/C(=C\c2ccncc2)N2CCC1CC2 | inconclusive: 99.5%
CCCCCCCCCCCCn1ccc(=N)cc1 | inconclusive: 118%
O=c1[nH]c(=O)n(C2CCCCC2)c(O)c1/C=C/C=Nc1ccccc1 | inconclusive: 116%
CN1C(=O)C(=Cc2c(OCc3cnc(Cl)s3)ccc3ccccc23)C(=O)N(C)C1=O | inactive: 97.2%
CSc1ccc(C(=O)C2CCCN(CCCn3cccn3)C2)cc1 (centres undefined) | inactive: 84.5%
c1ccc2c3c(ccc2c1)OCC1CONC31 (centres undefined) | inactive: 102%
O=C(Nc1cccc(Br)c1)c1c(O)c2c(n(Cc3ccccc3)c1=O)CCCC2 | inconclusive: 105%
Oc1ccc2c3c1O[C@H]1c4oc5ccccc5c4C[C@@]4(O)[C@@H](C2)N(CC2CC2)CC[C@]314 | inconclusive: 93.8%
c1cc(CCN2CCCC2)ccn1 | inconclusive: 127%
CC(=O)c1ccc(OC(=O)N(C)c2ccccc2)cc1 | inconclusive: 84%

SMILES | binding response (% of control)
N=c1c[n+](C2CCCCC2)[n-]o1 | inactive: 93.8%
CNC(=S)N1CC2CC(C1)c1cccc(=O)n1C2 (centres undefined) | inconclusive: 97.2%
COc1ccc(Cc2c(O)[nH]c(=O)[nH]c2=O)c(OC)c1 | inconclusive: 107%
C=CCn1c(O)c(C(C)=NCCN2CCN(C(=S)NC)CC2)c(=O)[nH]c1=O | inconclusive: 112%
CN1CCN(c2ncc(C=O)s2)CC1 | inactive: 103%
COc1ccccc1N1CCN(Cc2cnc(-c3ccccc3)[nH]2)CC1 | inconclusive: 124%
O=C1NC(=O)N(c2ccccc2)C(=O)/C1=C/c1ccc([N+](=O)[O-])s1 | inconclusive: 39.9%
COc1ccc(OCC(=O)N2CCN(C/C=C/c3ccccc3)CC2)cc1 | inconclusive: 90.3%
O=C1/C(=C/c2ccccc2Cl)N2CCC1CC2 | inconclusive: 88.8%
CC(=NCc1ccc2c(c1)OCO2)c1c(O)n(-c2ccc(C)cc2)c(=O)[nH]c1=O | inconclusive: 80.8%
Cc1nc2ccccc2c(=O)n1-c1cc(F)ccc1F | inactive: 105%
O=C1NC(=O)N(c2ccccc2)C(=O)/C1=C/C=C/c1ccco1 | inconclusive: 94.6%
Nc1c2c(nc3sc4c(c13)CCCCC4)CCCC2 | inactive: 104%
C#CC(CC)(CC)NC(=O)Nc1ccc(OCC)cc1 | inactive: 91%
C=Cn1ccnc1P(O)(=S)c1nc(C)c(CCOC(C)=O)s1 (centres undefined) | inactive: 108%
CCOc1ccc(C2(C#N)CC[N+](C)(C)CC2)cc1 | inactive: 97.7%
CC(=O)c1ccc(OC(C)C)c(Cc2c(O)[nH]c(=S)[nH]c2=O)c1 | inactive: 95.5%
Cc1c2ccncc2c(C)c2c1[nH]c1ccccc12 | inactive: 128%
CC[C@@]1(O)C(=O)OCc2c1cc1n(c2=O)Cc2cc3c(NC(=O)CN)cccc3nc2-1 | inconclusive: 82.7%
O=c1[nH]c(CN2CC=C(c3ccccc3)CC2)nc2scc(-c3cccs3)c12 | inconclusive: 149%
COC(=O)C(O)(c1ccc(NC(=O)c2cccs2)c(C)c1)C(F)(F)F (centres undefined) | inconclusive: 91.1%
Cc1nc2ccccc2c(=O)n1-c1ccc(C(=O)O)cc1 | inconclusive: 85.2%

As entered above:
binding response (% of control) with CN1C(=O)C(=Cc2c(OCc3cnc(Cl)s3)ccc3ccccc23)C(=O)N(C)C1=O reads inactive: 97.2%
binding response (% of control) with O=C1NC(=O)N(c2ccccc2)C(=O)/C1=C/C=C/c1ccco1 reads inconclusive: 94.6%
binding response (% of control) with CC(=NCc1ccc2c(c1)OCO2)c1c(O)n(-c2ccc(C)cc2)c(=O)[nH]c1=O reads inconclusive: 80.8%
